Source: the supplement of paper PMC10849652
This is one part of the list.

Protein sequences, listed by entry. Tags and fused reporters are not part of them. Lines headed by an entry give the natural chain unless they say otherwise; changes in a name come on top.
UniProt Q9NPJ6: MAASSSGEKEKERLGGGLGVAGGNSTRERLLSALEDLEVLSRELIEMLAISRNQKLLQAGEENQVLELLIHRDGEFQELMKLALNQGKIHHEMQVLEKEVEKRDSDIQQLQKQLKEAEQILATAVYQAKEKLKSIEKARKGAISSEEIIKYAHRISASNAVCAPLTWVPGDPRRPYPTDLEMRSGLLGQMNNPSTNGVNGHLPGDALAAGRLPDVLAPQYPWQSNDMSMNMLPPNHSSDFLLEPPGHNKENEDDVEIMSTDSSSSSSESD
UniProt Q15528: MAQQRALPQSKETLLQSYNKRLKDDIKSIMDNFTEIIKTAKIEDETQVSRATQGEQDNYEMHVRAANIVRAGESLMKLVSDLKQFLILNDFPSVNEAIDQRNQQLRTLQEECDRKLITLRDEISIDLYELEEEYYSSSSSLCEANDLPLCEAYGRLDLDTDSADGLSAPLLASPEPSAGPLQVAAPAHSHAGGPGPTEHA
UniProt Q96IZ6: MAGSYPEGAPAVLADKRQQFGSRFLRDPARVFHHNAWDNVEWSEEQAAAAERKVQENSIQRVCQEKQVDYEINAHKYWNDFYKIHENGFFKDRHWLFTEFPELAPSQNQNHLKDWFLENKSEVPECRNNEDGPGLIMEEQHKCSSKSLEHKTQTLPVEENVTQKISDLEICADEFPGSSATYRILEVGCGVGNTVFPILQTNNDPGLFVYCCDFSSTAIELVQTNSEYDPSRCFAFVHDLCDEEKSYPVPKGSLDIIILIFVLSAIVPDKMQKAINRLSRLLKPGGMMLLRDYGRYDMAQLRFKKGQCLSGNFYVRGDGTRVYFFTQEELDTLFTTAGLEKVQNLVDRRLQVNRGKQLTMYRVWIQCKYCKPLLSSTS
UniProt Q8NI22: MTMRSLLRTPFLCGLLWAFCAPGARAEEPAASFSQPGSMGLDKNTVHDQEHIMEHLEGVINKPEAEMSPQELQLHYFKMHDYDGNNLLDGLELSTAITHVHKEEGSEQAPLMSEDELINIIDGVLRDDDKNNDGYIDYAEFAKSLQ
UniProt Q14696: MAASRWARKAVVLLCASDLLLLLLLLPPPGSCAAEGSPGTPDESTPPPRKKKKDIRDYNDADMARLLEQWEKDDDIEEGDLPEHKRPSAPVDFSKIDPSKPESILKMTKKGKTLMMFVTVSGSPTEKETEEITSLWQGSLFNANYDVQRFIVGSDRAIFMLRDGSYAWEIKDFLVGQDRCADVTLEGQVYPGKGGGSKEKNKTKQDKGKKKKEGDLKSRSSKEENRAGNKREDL
UniProt Q14814: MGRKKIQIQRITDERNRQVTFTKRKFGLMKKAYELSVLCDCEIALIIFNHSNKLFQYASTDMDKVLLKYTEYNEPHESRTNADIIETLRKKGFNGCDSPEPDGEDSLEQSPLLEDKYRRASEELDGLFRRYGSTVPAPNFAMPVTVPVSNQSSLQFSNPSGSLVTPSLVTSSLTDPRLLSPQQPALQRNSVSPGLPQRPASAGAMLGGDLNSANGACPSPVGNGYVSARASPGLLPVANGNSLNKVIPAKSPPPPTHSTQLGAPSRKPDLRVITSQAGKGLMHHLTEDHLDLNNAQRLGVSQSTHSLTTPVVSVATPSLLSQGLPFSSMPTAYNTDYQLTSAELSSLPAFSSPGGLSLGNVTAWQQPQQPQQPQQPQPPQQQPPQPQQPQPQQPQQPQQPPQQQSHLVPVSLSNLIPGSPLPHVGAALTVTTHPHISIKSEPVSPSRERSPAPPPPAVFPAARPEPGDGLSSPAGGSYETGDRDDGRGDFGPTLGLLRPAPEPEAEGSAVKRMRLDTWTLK
UniProt O95140: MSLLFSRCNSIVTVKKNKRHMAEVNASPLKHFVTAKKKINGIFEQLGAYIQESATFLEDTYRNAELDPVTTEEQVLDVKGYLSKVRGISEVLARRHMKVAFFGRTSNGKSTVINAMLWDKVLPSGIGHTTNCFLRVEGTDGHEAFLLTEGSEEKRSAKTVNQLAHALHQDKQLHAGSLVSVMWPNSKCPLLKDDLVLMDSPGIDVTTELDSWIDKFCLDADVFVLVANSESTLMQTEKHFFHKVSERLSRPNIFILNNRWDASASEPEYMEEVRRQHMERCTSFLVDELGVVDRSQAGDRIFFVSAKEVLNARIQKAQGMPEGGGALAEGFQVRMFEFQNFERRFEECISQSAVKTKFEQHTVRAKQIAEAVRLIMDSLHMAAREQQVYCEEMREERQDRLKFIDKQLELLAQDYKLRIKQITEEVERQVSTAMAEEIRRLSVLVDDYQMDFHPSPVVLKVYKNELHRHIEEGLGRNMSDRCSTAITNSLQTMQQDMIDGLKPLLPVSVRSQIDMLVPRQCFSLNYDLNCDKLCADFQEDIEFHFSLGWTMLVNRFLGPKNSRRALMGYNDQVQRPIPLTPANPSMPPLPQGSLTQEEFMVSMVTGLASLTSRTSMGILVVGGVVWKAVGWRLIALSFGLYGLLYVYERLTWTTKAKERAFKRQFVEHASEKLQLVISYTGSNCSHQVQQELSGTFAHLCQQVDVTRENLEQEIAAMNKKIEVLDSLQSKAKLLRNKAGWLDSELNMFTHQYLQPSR
UniProt Q08431: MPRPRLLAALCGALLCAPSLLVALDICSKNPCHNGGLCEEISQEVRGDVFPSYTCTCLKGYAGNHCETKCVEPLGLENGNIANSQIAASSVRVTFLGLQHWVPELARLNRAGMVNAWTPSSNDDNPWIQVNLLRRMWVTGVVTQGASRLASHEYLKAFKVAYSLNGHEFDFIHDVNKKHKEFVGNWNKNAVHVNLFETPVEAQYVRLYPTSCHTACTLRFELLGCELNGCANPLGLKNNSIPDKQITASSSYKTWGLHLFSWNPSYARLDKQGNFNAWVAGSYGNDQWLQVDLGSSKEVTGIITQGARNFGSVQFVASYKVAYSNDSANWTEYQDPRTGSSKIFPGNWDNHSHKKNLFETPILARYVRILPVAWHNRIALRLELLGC
UniProt P48163: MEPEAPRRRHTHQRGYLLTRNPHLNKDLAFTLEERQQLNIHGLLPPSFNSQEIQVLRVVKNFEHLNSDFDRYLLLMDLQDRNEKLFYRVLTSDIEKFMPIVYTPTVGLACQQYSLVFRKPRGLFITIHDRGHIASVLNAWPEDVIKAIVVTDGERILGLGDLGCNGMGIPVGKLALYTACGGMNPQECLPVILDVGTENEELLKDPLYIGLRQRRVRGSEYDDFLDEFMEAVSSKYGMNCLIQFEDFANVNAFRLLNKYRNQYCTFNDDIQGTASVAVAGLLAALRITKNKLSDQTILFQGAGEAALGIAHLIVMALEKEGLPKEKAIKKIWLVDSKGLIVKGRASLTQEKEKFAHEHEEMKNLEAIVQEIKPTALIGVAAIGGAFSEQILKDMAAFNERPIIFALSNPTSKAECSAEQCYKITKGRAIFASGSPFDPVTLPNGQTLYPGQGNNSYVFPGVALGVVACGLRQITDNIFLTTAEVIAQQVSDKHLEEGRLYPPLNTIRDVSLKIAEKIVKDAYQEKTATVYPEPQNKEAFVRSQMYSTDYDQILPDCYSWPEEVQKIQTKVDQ
UniProt Q71F56: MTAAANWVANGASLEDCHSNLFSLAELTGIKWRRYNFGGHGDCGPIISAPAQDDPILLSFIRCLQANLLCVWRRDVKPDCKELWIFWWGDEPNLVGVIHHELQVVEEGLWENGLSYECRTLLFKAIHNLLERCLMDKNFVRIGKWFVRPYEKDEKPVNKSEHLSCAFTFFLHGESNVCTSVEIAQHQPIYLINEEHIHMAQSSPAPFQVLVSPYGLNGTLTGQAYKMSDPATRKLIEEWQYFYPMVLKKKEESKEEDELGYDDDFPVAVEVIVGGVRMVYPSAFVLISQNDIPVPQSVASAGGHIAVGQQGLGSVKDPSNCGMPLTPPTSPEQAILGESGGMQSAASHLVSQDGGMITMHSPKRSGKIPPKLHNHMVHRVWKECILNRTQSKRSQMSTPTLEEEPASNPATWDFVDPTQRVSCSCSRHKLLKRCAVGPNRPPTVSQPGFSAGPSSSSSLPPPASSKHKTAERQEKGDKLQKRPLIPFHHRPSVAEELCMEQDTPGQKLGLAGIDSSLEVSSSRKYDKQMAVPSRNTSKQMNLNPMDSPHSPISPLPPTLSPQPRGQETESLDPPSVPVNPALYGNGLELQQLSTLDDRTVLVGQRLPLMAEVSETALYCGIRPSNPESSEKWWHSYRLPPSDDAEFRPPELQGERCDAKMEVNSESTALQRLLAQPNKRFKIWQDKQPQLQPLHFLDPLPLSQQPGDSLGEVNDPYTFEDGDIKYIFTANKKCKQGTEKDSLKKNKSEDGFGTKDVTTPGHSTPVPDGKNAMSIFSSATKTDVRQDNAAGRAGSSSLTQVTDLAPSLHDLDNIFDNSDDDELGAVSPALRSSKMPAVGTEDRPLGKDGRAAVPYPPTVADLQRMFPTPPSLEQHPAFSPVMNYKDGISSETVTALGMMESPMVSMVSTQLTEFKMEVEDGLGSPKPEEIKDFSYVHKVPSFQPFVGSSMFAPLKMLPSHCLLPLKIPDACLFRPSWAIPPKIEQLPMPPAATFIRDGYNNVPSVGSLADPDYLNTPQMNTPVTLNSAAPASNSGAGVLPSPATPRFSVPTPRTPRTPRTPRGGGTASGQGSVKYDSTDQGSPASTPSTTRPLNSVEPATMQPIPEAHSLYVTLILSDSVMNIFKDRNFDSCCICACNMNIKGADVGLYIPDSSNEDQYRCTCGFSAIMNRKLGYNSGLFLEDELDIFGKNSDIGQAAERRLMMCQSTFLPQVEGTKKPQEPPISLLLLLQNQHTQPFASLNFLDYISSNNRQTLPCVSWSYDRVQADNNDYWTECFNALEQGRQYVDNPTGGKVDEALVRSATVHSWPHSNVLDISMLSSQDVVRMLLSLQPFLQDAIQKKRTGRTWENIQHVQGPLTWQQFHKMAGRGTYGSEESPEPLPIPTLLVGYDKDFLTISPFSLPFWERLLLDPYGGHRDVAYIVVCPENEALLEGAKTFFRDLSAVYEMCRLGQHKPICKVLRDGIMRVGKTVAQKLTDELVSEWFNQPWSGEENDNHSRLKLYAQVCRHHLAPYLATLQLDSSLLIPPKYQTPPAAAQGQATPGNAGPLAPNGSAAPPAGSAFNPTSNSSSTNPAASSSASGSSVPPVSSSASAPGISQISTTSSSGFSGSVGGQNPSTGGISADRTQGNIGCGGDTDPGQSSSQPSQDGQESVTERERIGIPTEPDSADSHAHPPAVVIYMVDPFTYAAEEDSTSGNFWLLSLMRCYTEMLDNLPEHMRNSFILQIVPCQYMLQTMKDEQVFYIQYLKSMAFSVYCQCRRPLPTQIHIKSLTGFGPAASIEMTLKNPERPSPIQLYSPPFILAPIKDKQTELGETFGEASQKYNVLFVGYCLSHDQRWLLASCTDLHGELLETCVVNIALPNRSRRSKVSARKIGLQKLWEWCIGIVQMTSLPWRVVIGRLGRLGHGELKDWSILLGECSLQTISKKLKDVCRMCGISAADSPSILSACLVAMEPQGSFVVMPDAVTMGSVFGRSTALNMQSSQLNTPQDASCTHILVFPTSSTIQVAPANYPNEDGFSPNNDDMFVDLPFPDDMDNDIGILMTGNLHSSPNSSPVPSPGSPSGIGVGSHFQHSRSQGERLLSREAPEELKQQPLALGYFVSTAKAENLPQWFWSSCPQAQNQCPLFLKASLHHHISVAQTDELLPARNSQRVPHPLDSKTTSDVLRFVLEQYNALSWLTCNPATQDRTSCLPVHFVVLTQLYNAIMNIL
UniProt Q9NVC6: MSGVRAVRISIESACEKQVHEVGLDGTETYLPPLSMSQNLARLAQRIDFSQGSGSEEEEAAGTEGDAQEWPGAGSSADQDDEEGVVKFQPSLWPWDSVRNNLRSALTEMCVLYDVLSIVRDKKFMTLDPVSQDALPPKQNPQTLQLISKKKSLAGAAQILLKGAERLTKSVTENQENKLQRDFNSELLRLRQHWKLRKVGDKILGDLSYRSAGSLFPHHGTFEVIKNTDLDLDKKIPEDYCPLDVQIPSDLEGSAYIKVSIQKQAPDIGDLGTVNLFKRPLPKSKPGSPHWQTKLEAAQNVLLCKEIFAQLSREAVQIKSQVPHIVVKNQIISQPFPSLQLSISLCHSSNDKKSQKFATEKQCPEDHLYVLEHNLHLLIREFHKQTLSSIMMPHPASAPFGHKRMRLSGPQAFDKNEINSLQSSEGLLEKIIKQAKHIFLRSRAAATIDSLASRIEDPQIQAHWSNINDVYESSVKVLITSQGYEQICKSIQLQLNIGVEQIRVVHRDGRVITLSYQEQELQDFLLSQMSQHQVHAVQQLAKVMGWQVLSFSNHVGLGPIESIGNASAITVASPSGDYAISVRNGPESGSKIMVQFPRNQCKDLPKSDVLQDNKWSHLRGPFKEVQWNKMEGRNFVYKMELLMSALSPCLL
UniProt Q96HR3: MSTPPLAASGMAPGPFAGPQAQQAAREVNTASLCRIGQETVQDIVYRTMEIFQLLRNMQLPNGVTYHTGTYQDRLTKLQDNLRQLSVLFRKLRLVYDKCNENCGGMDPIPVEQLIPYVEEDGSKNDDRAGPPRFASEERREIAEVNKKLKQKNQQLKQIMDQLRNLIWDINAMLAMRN

Each target was assayed with C/C(=N\NC(=O)C1=CC(=CC=C1)S(=O)(=O)N2CCOCC2)/C3=C(C=CC(=C3)Cl)O (assay: log2 fold change, soluble protein after heating vs DMSO (PISA); higher = thermal stabilisation; K562 lysate, 10 uM; active = over 0.2 and 3.5 SD of the protein, either way, in both replicates (recomputed)).
Summary of the method: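 Soluble protein was defined as the supernatant remaining after 21,000xg for 90 min, following pooling of heated aliquots and adjustment to 0.5% NP-40 at 4°C. Before that, crude K562 extract at 1 mg/mL protein in PBS pH 7.4 with 1 mM MgCl2 was treated with 10 μM compound for 30 min and heated for 3 min across 48°C-58°C. Quantification used TMTpro 16plex LC-MS/MS with channel sums equalised, and values are log-two fold changes in thermal stability relative to solvent controls from duplicates.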

log2 fold change, inactive:
METTL16 (UniProt Q86W50) 0.028
MEX3D isoform 3 (UniProt Q86XN8) -0.066
MED4 (UniProt Q9NPJ6) 0.005
MEF2C isoform 5 (UniProt Q06413) -0.019
MED22 isoform 2 (UniProt Q15528) 0.016
MFSD10 (UniProt Q14728) 0.049
MDH1 isoform 3 (UniProt P40925) 0.02
MCM4 (UniProt P33991) 0.036
METTL2A (UniProt Q96IZ6) -0.009
MED8 isoform 2 (UniProt Q96G25) 0.007
MCFD2 (UniProt Q8NI22) -0.138
MESD (UniProt Q14696) 0.001
METTL7A (UniProt Q9H8H3) 0.043
MED20 (UniProt Q9H944) 0.002
MEF2D (UniProt Q14814) -0.038
MCU (UniProt Q8NE86) -0.028
MAZ isoform 2 (UniProt P56270) 0.099
MBOAT2 (UniProt Q6ZWT7) 0.014
MDN1 (UniProt Q9NU22) 0.009
MFN2 (UniProt O95140) 0.023
MED14 (UniProt O60244) 0.018
MFGE8 (UniProt Q08431) 0.014
ME1 (UniProt P48163) 0.006
MFN1 (UniProt Q8IWA4) 0.124
METAP1 (UniProt P53582) -0.055
MED13L (UniProt Q71F56) -0.049
MCM5 (UniProt P33992) -0.011
MED15 (UniProt Q96RN5) 0.005
MED7 (UniProt O43513) -0.122
MED12 isoform 2 (UniProt Q93074) -0.037
METAP2 (UniProt P50579) 0.007
MBNL1 (UniProt C9JP00) 0.121
MED13 (UniProt Q9UHV7) 0.047
MED26 (UniProt O95402) -0.002
MED1 (UniProt Q15648) 0.042
MED17 (UniProt Q9NVC6) 0.062
MED30 (UniProt Q96HR3) -0.005
MFSD1 isoform 6 (UniProt Q9H3U5) 0.048

Not a retest: entries from further up.
log2 fold change, inactive:
MFGE8 (UniProt Q08431) 0.014
ME1 (UniProt P48163) 0.006
